The record followed here is article PMC11354203.

This test concerns the target T1, 3Flag-Aurora B^AUK1 (Trypanosoma brucei) (UniProt Q384J7).
T1 sequence: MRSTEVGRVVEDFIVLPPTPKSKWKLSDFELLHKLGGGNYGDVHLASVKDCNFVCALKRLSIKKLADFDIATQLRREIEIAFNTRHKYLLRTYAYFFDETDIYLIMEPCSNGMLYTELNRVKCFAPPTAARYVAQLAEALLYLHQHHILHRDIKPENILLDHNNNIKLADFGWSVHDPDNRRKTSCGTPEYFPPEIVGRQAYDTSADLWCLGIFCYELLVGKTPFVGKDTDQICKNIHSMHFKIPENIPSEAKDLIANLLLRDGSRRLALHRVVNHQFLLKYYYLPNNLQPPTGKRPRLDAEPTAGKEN
The experiment in a line: co-purification of co-expressed proteins; 3Flag-Aurora B^AUK1 (or K58R) and INCENP^CPC1 from one pACEBac plasmid in Sf9 cells, purified by a protocol described previously.

No constants are given. Whether binding was seen depends on the method and setting. Some binding calls cover weakened binding; strength is not graded here. Tags and fused reporters may be left off the sequences shown.

B1: INCENP^CPC1 (protein, UniProt Q586F4 1-263)
chain: MSNPWNAKLVEELLFRQYEKGEDVSMLLPPPPALSVDQYLKEYEQSTKVLFAYVRNGPANALTPQNINNPRMYGGTPTKGSSSMQRTGNQGGATCATTSSSSACGVDSKAQMQRHPRGLDGSQSAAPSLPLTAGDAAAGQGSMAPPEHIRKRIEWPATVPTNSALKSNSRSRVANLTTKRVAAQERVDPDLIFMQNPEELPLHTIFAKYPKAVESIAALRGGSGDWREDTFTEEEEILYKRELRYSHMGPSQCGFFRSNLIQR
Consider B1, for which the binding entry is listed as “binds”.
